From PubChem BioAssay AID1347075 (National Center for Advancing Translational Sciences (NCATS), 2019)
Screen size: about 400,000 compounds; about 5,500 (1.4%) were called active. This list was built around the results that the source calls inconclusive (neither active nor inactive); the mix of calls is not that of the screen. Calls follow the shape of the dose curve; as a rule, active = well fitted cell-killing curve with a large enough effect; inconclusive = small, poorly fitted or top-dose-only effect, or effect the other way; inactive = flat fitted curve, though single readings scatter. A potency beside an inconclusive call is a rough fit, not a confirmed value.

experiment: qHTS assay for MDR1-selective chemotherapeutics: Primary screen using the parental adenocarcinoma cell KB-3-1; conditions: KB-3-1 viability, CellTiter-Glo ATP luminescence, 72 h; activity change, negative = cytotoxic: at 46.1 µM (top of the series); also: nearly all actives have a fitted effect of over 60% in size
Procedure, shortened: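 72 h, 37 °C compound treatment of KB-3-1 parental cells; CellTiter-Glo added, 10 min, luminescence read. Data corrected against DMSO-only plates and normalized before curve fitting.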
% is scaled to controls: 0 for no effect and ±100 for the full control effect; potency is read from the fitted curve at half-maximal effect.

Row | Compound | Potency | activity change, negative = cytotoxic
1 | N=c1n(CCN2CCOCC2)c2ccccc2n1CC(=O)c1ccc(Cl)c(Cl)c1 | inconclusive: 14.6 µM [cytotoxic, partial curve] | 
2 | CCN(C(=O)CSc1nc2ccccc2c(=O)n1Cc1ccc(C)cc1)C1CCS(=O)(=O)C1 (stereo not given) | inactive | 
3 | Cc1ccc(/C=c2\sc3nc(-c4ccccc4Br)nn3c2=O)o1 | inactive | 
4 | CC(C)(C)OC(=O)[C@H](Cc1ccccc1)NC(=O)c1[nH]cnc1C(=O)Nc1cccc(Cl)c1 | inconclusive: 23.1 µM [cytotoxic, single point] | 
5 | COc1ccc(C(CNCC(O)COc2c(C)ccc(C)c2C)N(C)C)cc1 (stereo not given) | inconclusive: 23.1 µM [cytotoxic, single point] | 
6 | Clc1ccc(-c2nnc(NCc3ccccc3)c3ccccc23)cc1 | inconclusive: 29.1 µM [cytotoxic, single point] | 
7 | CC(C)(C)c1ccc(OCCCC(=O)Nc2cccc(S(=O)(=O)N3CCOCC3)c2)cc1 | inconclusive: 29.1 µM [cytotoxic, single point] | 
8 | CCN1CSC(=S)N(Cc2ccc(OC)cc2)C1 | inconclusive: 29.1 µM [cytotoxic, single point] | 
9 | CC(C)(C)C(=O)Nc1ccc(-c2cn3ccsc3n2)cc1 | inactive | 
10 | O=C1N[C@@H](Cc2ccccc2)COC(=O)[C@H](Cc2ccc(F)cc2)CC/C=C/C[C@H]1CC(=O)N(CCO)Cc1ccccc1 | inconclusive: 29.1 µM [cytotoxic, single point] | 
11 | O=C1C2C3c4ccccc4C(c4ccccc43)[C@@H]2C(=O)N1c1ccccn1 (stereo not given in full) | inactive | 
12 | CC(C)NC(=O)CN1CCN(Cc2nc(C(c3ccccc3)c3ccccc3)no2)CC1 | inconclusive: 11.6 µM [rising, partial curve] | 
13 | CC1=C(C(=O)N2CCCCCC2)CC(CC(=O)NCc2cccc3ccccc23)C(=O)N1CCC1=CCCCC1 (stereo not given) | inconclusive: 29.1 µM [cytotoxic, single point] | 
14 | CCN(CC)S(=O)(=O)c1cccc(NC(=O)COc2ccc(Cl)cc2Br)c1 | inconclusive: 29.1 µM [cytotoxic, single point] | 
15 | CCCCC(=O)Nc1ccc(C(=O)OC2CCCCC2)cc1 | inconclusive: 23.1 µM [cytotoxic, single point] | 
16 | COC(=O)c1ccc(Cl)c(NC(=O)NC23CC4CC(CC(C4)C2)C3)c1 | inconclusive: 20.6 µM [cytotoxic, single point] | 
17 | Cc1oc(-c2ccoc2)nc1CN(Cc1ccccc1)CC1CC1 | inactive | 
18 | Cc1ccc(C)c(N2CCN(S(=O)(=O)c3ccc(-c4cnc(C5CC5)o4)cc3)CC2)c1 | inconclusive: 18.4 µM [cytotoxic, single point] | 
19 | CCCCN1C(=O)C(O)(CC(=O)c2c(C)n[nH]c2C)c2cc(Br)ccc21 (stereo not given) | inactive | 
20 | COc1cc(NC(=O)N2CCc3nc(NCc4cccc(Oc5ccccc5)c4)ncc3C2)cc(OC)c1OC | inconclusive: 29.1 µM [cytotoxic, single point] | 
21 | COc1ccc(CN(C(=O)c2ccco2)c2ccc(Br)cc2)cc1OC | inactive | 
22 | OCCc1c[nH]c2ccc(C(F)(F)F)cc12 | inconclusive: 18.4 µM [rising, single point] | 
23 | CCc1cccc(CC)c1NC(=O)CSc1nnc(C2CC2)n1C | inconclusive: 11.6 µM [rising, single point] | 
24 | CCOCCCNc1nc2c(S(=O)(=O)c3ccc(CC)cc3)nnn2c2ccc(Cl)cc12 | inactive | 

Row | Compound | Potency | activity change, negative = cytotoxic
25 | O=C(NCc1ccncc1)c1cccc(S(=O)(=O)N2CCc3ccccc32)c1 | inconclusive: 18.4 µM [cytotoxic, single point] | 
26 | O=[N+]([O-])c1ccccc1Nc1c2ccccc2nc2ccccc12 | inconclusive: 5.17 µM [cytotoxic, full curve] | 
27 | COc1ccc(-c2cn3cccnc3n2)cc1NC(=O)Nc1cc(C)ccc1C | inactive | 
28 | Cc1ccc2c(c1)N(C)/C(=C/c1cccc[n+]1C)S2 | active: 0.92 µM | 
29 | Cc1ccc(C)c(N2CCN(C(=O)C3CCN(c4nc(C)cc(C)n4)CC3)CC2)c1 | inconclusive: 25.9 µM [cytotoxic, partial curve, poor fit] | 
30 | O=[N+]([O-])c1ccc(/C=C2\CCC(C3=CCCC3)=C2N2CCOCC2)cc1 | inactive | 
31 | Cc1ccc(-n2nc(CC#N)c(C#N)c2N)cc1 | inactive | 
32 | CC(CC(=O)Nc1cccnc1)c1ccccc1 (stereo not given) | inactive | 
33 | CCC1(c2ccc(F)cc2)NC(=O)N(CC(=O)NC2CC2)C1=O (stereo not given) | inactive | 
34 | COc1ccccc1NS(=O)(=O)c1ccc(C(=O)NCC(c2ccccc2OC)N(C)C)cc1 (stereo not given) | inactive | 
35 | COCc1cc(CN2CCN(C)CC2)c(O)c2ncccc12 | inconclusive: 18.4 µM [cytotoxic, single point] | 
36 | CC1(C(=O)NCc2ccco2)Cc2c(-c3cccc(C(F)(F)F)c3)ccnc2O1 (stereo not given) | active: 6.51 µM | 
37 | O=C(N/N=C/C(Cl)=C/c1ccccc1)c1ccc2c(c1)OCO2 | inconclusive: 29.1 µM [cytotoxic, single point] | 
38 | CCn1c(SCC(=O)Nc2nccs2)nnc1-c1ccccc1 | inactive | 
39 | COc1ccc(CNc2nc3c(c(=O)n(Cc4ccc(Br)cc4)c(=O)n3C)n2C)cc1 | inconclusive: 16.4 µM [cytotoxic, single point] | 
40 | O=C(/C=C/c1ccc2c(c1)OCO2)c1cccnc1 | inconclusive: 16.4 µM [cytotoxic, partial curve] | 
41 | COc1ccc(-c2onc(C)c2C)cc1S(=O)(=O)Nc1cccc(C#N)c1 | inconclusive: 25.9 µM [cytotoxic, single point] | 
42 | Cc1nnc(SCc2cccc([N+](=O)[O-])c2)[nH]c1=O | inconclusive: 0.517 µM [cytotoxic, full curve, poor fit] | 
43 | COc1ccc([C@H]2N[C@]3(CCCN(Cc4ccc(Cl)cc4)C3=O)[C@H]3C(=O)N(Cc4ccccc4)C(=O)[C@@H]23)cc1 | inactive | 
44 | COc1ccc([N+](=O)[O-])cc1/C=N/Nc1nc(N2CCCCC2)nc(N2CCCCC2)n1 | inconclusive: 6.51 µM [rising, partial curve, poor fit] | 
45 | O=C1/C(=C/c2cccnc2)SC(=S)N1Cc1ccco1 | active: 13 µM | 
46 | COc1ccccc1NC1=C(N2CCCCC2)C(=O)c2ccccc2C1=O | active: 2.59 µM | 
47 | Cc1ccc2nc(NNC(=O)c3ccc(S(=O)(=O)N4CCc5ccccc5C4)cc3)sc2c1 | inconclusive: 18.4 µM [cytotoxic, partial curve, poor fit] | 
48 | O=C(N/N=C/c1ccc(COc2ccc(Br)cc2)o1)c1ccc2c(c1)OCO2 | inconclusive: 32.6 µM [cytotoxic, single point] | 

A draw from above in order of molecular weight, rising:
Row | Compound | Potency | activity change, negative = cytotoxic
45 | O=C1/C(=C/c2cccnc2)SC(=S)N1Cc1ccco1 | active: 13 µM | 
26 | O=[N+]([O-])c1ccccc1Nc1c2ccccc2nc2ccccc12 | inconclusive: 5.17 µM [cytotoxic, full curve] | 
30 | O=[N+]([O-])c1ccc(/C=C2\CCC(C3=CCCC3)=C2N2CCOCC2)cc1 | inactive | 
43 | COc1ccc([C@H]2N[C@]3(CCCN(Cc4ccc(Cl)cc4)C3=O)[C@H]3C(=O)N(Cc4ccccc4)C(=O)[C@@H]23)cc1 | inactive | 

(further entries)

Row | Compound | Potency | activity change, negative = cytotoxic
49 | COc1ccc([C@@H]2Sc3ccccc3NC(=O)[C@@H]2O)cc1 | inconclusive: 23.1 µM [cytotoxic, single point] | 
50 | O=S(=O)(Nc1nc2ccccc2nc1N1CCc2ccccc2C1)c1ccc(Cl)cc1 | active: 14.6 µM | 
51 | COc1ccc(Nc2cc(C)c3c(O)cccc3n2)cc1 |  | inconclusive: -27.7%
52 | CCOc1ccc(C(=O)NCC(c2ccc(Cl)cc2)N2CCCCC2)cc1 (stereo not given) | inconclusive: 29.1 µM [cytotoxic, single point] | 
53 | CCc1sc(C(=O)N2CCN(CC(=O)Nc3cccc(F)c3)CC2)cc1C | inconclusive: 10.3 µM [cytotoxic, partial curve, poor fit] | 
54 | CCOC(=O)CSc1nc2cc(C)ccc2cc1C#N | inconclusive: 16.4 µM [cytotoxic, single point] | 
55 | COc1ccc(CCn2c(=O)[nH]c3cc(C(=O)N4CCN(c5ccccc5)CC4)ccc3c2=O)cc1OC | inconclusive: 16.4 µM [cytotoxic, single point] | 
56 | CN(C)CCNC(=O)c1cccc(-c2cnc3c(NC=O)cc(-c4cccc(C(F)(F)F)c4)cn23)c1 | inconclusive: 20.6 µM [cytotoxic, single point] | 
57 | Cc1ccc(NC(=O)/C(C#N)=C/c2cc(C)n(-c3ccc(Br)cc3)c2C)cc1C | inactive | 
58 | CCCCc1ccc(-c2ccc(Br)cc2O)nc1 | inconclusive: 23.1 µM [cytotoxic, single point] | 
59 | COc1ncccc1-c1nnn(-c2ccc(Cl)nc2)n1 | inactive | 
60 | CC(C)Oc1ccc(C(=O)Nc2cccc(S(=O)(=O)N3CCCC3)c2)cc1 | inconclusive: 29.1 µM [cytotoxic, single point] | 
61 | COc1ccc(CCNS(=O)(=O)c2cccc([N+](=O)[O-])c2)cc1OC | inactive | 
62 | C[n+]1c2n(c3ccccc31)N=C(c1ccc(-c3ccccc3)cc1)CS2 | inactive | 
63 | CN(N=O)c1ccc(/C=C2\C=Cc3ccccc32)cc1 | inconclusive: 16.4 µM [rising, partial curve] | 
64 | NNC(=O)c1cc2ccccc2[nH]1 | inconclusive: 18.4 µM [cytotoxic, single point] | 
65 | Cn1ncc2c(N3CCOCC3)ncnc21 | inactive | 
66 | C[C@]12c3[nH]c4cc(-c5ccco5)ccc4c3CCN1C(=O)[C@@H](CC(=O)NCc1cccc(C(F)(F)F)c1)C[C@@H]2C(=O)N1CCCCC1 | active: 18.4 µM | 
67 | Cc1nc2ccccc2cc1OCc1ccc(F)cc1 | inconclusive: 25.9 µM [cytotoxic, single point] | 
68 | Cc1ccc2c(c1)N(C(=O)CCC(=O)NCc1cccnc1)CCO2 | inconclusive: 2.31 µM [cytotoxic, partial curve, poor fit] | 
69 | C/C=C/c1ccc(OCCCCNCc2ccco2)c(OC)c1 | inconclusive: 14.6 µM [cytotoxic, single point] | 
70 | Cc1ccc(OCC(O)CNS(=O)(=O)c2ccccc2C(=O)O)cc1 (stereo not given) | inactive | 

Part of the list above in a different format:
Row	Compound	Potency	activity change, negative = cytotoxic
64	NNC(=O)c1cc2ccccc2[nH]1	inconclusive: 18.4 µM [cytotoxic, single point]	
65	Cn1ncc2c(N3CCOCC3)ncnc21	inactive	
